From paper doi:10.1101/2023.10.11.561954 come the findings set out here.

Sequences of proteins named here, by UniProt entry; tags and fusion partners are left off.
UniProt Q04695: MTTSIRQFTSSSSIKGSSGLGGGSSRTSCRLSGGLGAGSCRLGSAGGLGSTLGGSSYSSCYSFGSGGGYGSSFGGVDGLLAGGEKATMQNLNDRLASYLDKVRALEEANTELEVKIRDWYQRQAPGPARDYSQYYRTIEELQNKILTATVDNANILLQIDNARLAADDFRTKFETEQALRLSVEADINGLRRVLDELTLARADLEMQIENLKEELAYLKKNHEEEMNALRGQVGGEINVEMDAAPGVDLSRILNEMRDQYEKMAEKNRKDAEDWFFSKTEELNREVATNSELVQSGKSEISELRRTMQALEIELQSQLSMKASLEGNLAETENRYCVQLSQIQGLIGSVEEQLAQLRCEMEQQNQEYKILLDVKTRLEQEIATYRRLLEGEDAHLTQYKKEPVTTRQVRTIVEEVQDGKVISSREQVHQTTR

In the test the target is Keratin 17 (human (endogenous in A431)) (UniProt Q04695). The experiment in a line: proximity ligation.

These are yes or no findings as the source states them, for the method shown. Binding seen in cells or lysates may run through a third protein. Some entries that bind do so weakly or less than the wild type.

“protein kinase C alpha (from UniProt P17252 1-672) (enzyme)”: the binding result is recorded as “binds”.
